Measurements from paper PMC4539528.
No constants are given. Whether binding was seen depends on the method and setting. Binding seen in cells or lysates may run through a third protein. Some results given as binding are weak or reduced against the parent protein; the word gives no strength. Tags and fused reporters may be left off the sequences shown.

Columns and labels:
Experiment in all cases: pull-down; 2-5 ug purified GST-N-cadherin fusion protein incubated with about 500 ug lysate of transfected HEK293T cells in RIPA buffer at 4°C overnight; captured on glutathione-Sepharose 4B beads; immunoblot; only the target purified
GST-Ncad751-794 = molecular target: T1, GST-Ncad751-794 (UniProt P15116)
T1 sequence: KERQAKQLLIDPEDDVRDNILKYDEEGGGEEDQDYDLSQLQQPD

GST-Ncad751-844 = molecular target: T2, GST-Ncad751-844 (UniProt P15116)
T2 sequence: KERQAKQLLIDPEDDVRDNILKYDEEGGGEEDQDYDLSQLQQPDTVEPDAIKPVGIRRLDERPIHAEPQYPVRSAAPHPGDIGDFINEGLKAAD

[1] = molecular target: GST-N-cadherin cytoplasmic domain fusion protein (GST-Ncad-CT) (UniProt P15116)
GST-Ncad751-906 = GST-Ncad751-906 (UniProt P15116)

binding (GST-Ncad751-794): no binding
binding (GST-Ncad751-844): no binding
binding [1]: binds
binding (GST-Ncad751-906): binds
B1: HA-Myo10^FERM (domain or fragment, UniProt F8VQB6 1704-2048)
chain: MTSTVYCHGGGSCKITINSHTTAGEVVEKLIRGLAMEDSRNMFALFEYNGQVDKAIESRTIVADVLAKFEKLAATSEAGDAPWKFYFKLYCFLDTDSMPKDSVEFAFMFEQAHEAVIHGHHPAPEESLQVLAALRLQYLQGDYTPHTSIPPLEEVYSVQRLRARISQSTKTFTPYERLEKRRTSFLEGTLRRSFRTGSVVRQKAEEEQMLDMWIKEEVCSARTSIIDKWKKLQGMNQEQAMAKYMALIKEWPGYGSTLFDVECKEGGFPQELWLGVSADAVSVYKRGEGKPLEVFQYEHILSFGAPLANTYKIVVDERELLFETSEVVDVAKLMKAYISMIVKKR
